Columns and labels:
[1] = HR-ESI-MS peptide–zinc interaction; type: binding; details: 10^–6 M peptide, 100-fold excess Zn^2+, 2 h, 37 °C
[2] = potentiometric titration, Zn^2+ complex stability constants; type: binding
Protocol: Potentiometric measurements were carried out to give insight into the coordination environment of Zn^2+ bound to the d-bdnf peptide (Figure S5). […] The four protonation equilibria of the aspartic and glutamic residues partly overlap but, in agreement with the literature data, the aspartic β-carboxylic group is more acidic than glutamic γ-carboxylic one.[48] The potentiometric titrations were carried out exploring 0.9:1 and 2.2:1 metal to ligand molar ratio. […] The peptide forms two complex species, [ZnLH] and [ZnL]. The first one is the predominant at pH = 6, and the calculated stability constant value [logK(111) = logβ(111) – logK(011) = 5.71] indicates the involvement of three nitrogen atoms in the metal coordination environment. The [ZnL] species display a stability constant value, logβ = 7.15, higher than that of protonated species indicative of the involvement of a further nitrogen atom in the metal binding mode. In this complex species, Zn^2+ is bound to four nitrogen atoms with the involvement of two amino and two imidazole (2NH2,2NIm coordination mode). […]
Potentiometric measurements
Potentiometric titrations were carried out on a Titrando 905 automatic, using a combined glass-Ag/AgCl electrode (Metrohm, Switzerland). Solutions (2.0 mL) were thermostated at 298 K and in argon atmosphere. The ionic strength was 0.1 M in KNO3. A 0.1 M solution of KOH was used to titrate solutions containing either the peptides only (protonation constants) or the peptides with Zn2+ (complexation constants). The peptide concentrations range used was 1-2 mM in both series of experiments. At least three independent titrations were performed. Starting pH value was adjusted to 2.4 by adding HNO3 0.2 M. The titrations were carried out up to pH 8.5. Metal ion/ligand ratios between 0.9:1 and 2.2:1 were employed. To avoid systematic errors and verify reproducibility, the EMF values of each experiment were recorded at different time intervals. The data were analyzed by […]
using HYPERQUAD 2003 program 17. […]

Row | Substance | Zn^2+ binding stoichiometry [1] | number of zinc ions bound ([2]; 0.9:1 and 2.2:1 metal to ligand, only mononuclear species) | logK(111) = logβ(111) – logK(011) ([2]; [ZnLH], 298 K, 0.1 M KNO3) | logβ of [ZnL] ([2]; [ZnL], 2NH2,2NIm, 298 K, 0.1 M KNO3)
1 | HSDPARRGELSV-NH2 [m-bdnf, linear peptide fragment encompassing the first 12 amino acids of the mature NT N-terminal] | coordinate one metal center |  |  | 
2 | HSDPARRGELSVC-C-VSLEGRRAPDSH (disulfide) [d-bdnf] | coordinate one metal center | able to bind one zinc ion | 5.71 | 7.15

— PMC9732821, “Neurotrophic Activity and Its Modulation by Zinc Ion of a Dimeric Peptide Mimicking the Brain-Derived Neurotrophic Factor N-Terminal Region” (ACS Chemical Neuroscience, 2022)
